From the supplement of paper PMC12823440, “Inhibitors supercharge kinase turnover through native proteolytic circuits” (Nature, 2025)
Where a name gives a salt, the structure may show the parent alone. The list shows a part of the results. Hit calls seldom repeat between salt and free forms of one compound.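 Kinases were expressed as nanoluciferase fusions in K562 cells and luminescence was read every 4 h between 2 and 18 h as percent of control, DMSO set to 100% and a positive control to 0%. A time point counts as decreased when the signal drops significantly (2 sigma). The hit call is the authors' own, does not follow from the count of time points alone, and its rule is not shown.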

Amino acid sequences for entries named in this document (tags omitted).
UniProt P29317, whole entry: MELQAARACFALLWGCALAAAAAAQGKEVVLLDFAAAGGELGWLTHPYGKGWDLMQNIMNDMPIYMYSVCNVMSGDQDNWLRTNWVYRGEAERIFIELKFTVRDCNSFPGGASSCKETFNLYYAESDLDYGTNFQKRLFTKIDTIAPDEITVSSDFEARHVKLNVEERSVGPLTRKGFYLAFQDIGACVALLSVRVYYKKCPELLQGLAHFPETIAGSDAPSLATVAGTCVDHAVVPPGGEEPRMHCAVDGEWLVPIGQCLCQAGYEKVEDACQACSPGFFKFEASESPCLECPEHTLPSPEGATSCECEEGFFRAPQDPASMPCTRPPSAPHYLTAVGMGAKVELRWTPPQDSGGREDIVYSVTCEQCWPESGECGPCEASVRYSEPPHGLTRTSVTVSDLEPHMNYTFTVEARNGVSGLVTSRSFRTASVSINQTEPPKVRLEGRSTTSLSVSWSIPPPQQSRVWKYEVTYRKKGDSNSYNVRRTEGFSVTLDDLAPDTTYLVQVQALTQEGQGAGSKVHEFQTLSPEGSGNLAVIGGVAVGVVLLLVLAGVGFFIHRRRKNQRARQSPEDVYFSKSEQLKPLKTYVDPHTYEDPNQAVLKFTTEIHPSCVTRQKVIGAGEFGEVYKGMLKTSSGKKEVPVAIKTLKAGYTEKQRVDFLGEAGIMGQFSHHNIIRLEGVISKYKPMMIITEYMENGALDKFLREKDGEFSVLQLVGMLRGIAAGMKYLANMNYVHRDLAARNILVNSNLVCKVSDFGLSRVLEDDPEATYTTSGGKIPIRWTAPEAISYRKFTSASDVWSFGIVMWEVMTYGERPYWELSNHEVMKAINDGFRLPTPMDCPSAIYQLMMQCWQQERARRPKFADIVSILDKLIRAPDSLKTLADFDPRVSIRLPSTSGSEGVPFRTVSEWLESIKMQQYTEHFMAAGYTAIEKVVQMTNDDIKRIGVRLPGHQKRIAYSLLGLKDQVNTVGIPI
UniProt P21860, whole entry: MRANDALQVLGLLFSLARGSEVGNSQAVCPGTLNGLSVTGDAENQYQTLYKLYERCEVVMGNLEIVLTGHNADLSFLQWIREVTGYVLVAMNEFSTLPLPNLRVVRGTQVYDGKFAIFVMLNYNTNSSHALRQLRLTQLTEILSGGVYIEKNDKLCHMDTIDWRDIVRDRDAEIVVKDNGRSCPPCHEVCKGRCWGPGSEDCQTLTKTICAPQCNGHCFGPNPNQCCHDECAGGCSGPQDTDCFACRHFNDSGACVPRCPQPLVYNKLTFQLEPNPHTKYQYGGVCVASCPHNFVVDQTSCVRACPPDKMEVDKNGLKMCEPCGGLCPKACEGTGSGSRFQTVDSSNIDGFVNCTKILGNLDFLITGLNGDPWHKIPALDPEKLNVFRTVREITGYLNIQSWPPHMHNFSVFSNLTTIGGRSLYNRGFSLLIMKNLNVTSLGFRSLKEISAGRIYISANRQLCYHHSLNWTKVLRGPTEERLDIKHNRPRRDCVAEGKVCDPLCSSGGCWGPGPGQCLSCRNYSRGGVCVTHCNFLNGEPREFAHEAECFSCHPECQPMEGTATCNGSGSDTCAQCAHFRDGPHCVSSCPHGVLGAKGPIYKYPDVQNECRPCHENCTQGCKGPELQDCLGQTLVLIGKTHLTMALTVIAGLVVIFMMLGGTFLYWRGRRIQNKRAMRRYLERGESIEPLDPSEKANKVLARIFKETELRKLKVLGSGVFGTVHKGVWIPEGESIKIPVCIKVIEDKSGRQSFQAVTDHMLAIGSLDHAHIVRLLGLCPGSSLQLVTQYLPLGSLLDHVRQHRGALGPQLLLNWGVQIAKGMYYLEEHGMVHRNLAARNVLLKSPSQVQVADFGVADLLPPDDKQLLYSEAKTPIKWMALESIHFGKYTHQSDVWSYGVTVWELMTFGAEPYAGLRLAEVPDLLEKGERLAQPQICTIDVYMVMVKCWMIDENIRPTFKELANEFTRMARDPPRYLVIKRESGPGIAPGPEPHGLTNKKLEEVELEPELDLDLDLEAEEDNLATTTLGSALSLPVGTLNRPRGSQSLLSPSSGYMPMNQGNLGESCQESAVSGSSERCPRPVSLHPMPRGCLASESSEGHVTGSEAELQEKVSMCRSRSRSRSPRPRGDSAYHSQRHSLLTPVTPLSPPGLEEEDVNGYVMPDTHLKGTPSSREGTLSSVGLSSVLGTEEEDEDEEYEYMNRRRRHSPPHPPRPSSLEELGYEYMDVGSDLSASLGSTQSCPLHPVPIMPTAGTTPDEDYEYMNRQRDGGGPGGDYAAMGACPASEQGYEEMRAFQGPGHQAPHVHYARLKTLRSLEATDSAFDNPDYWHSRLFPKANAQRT
UniProt Q15303, whole entry R711C: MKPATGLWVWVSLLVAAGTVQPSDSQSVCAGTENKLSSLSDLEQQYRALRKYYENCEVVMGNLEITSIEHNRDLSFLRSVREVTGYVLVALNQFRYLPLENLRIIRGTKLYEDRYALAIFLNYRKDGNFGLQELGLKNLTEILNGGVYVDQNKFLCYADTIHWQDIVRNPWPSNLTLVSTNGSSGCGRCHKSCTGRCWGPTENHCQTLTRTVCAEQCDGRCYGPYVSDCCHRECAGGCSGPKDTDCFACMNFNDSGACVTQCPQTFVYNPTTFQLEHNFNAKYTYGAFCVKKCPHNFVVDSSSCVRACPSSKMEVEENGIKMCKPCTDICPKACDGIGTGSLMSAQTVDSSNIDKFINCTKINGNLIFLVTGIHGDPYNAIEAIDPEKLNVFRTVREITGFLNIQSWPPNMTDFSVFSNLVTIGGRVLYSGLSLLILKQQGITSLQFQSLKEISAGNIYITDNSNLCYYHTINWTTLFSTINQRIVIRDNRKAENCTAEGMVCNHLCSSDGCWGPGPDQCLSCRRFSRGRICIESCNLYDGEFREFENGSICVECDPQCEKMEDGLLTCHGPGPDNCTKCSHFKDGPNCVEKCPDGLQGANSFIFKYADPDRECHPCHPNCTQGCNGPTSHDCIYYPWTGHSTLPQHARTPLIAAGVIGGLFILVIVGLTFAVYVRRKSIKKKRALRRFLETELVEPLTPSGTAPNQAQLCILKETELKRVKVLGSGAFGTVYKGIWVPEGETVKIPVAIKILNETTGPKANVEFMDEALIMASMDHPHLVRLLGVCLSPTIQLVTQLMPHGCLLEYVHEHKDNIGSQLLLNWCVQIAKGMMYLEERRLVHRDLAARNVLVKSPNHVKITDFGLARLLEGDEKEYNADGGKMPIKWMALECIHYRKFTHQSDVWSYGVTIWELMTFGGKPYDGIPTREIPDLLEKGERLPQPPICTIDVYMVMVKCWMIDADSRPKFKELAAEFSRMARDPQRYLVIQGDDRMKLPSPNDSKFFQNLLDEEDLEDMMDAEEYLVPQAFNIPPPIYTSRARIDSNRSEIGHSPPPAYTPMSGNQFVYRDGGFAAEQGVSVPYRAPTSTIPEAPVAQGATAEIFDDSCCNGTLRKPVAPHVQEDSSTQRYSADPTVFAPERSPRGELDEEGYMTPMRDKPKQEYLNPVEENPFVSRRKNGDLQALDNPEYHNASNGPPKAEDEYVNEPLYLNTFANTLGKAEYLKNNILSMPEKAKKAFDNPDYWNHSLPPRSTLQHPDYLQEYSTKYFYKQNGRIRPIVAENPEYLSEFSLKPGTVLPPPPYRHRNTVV

What was measured:
Assay in all cases: kinase-Nluc reporter destabilization hit call (1 = scored as downregulated) (binary); higher = compound decreases kinase abundance
Settings in all cases: K562; 2-18 h
EGFR = EGFR (UniProt P00533)
EGFR_G719S = EGFR_G719S (UniProt P00533)
EGFR_G719S_T790M = EGFR_G719S_T790M (UniProt P00533)
EGFR_L718V = EGFR_L718V (UniProt P00533)
EGFR_L858R = EGFR_L858R (UniProt P00533)
EGFR_L861Q = EGFR_L861Q (UniProt P00533)
EGFR_T790M = EGFR_T790M (UniProt P00533)
EPHA2 = EPHA2 (UniProt P29317)
ERBB3 = ERBB3 (UniProt P21860)
[1] = target: ERBB4_R711C (clone: ERBB4_mut) (UniProt Q15303)

Measured: kinase-Nluc reporter destabilization hit call

O=S(=O)(N=Cc1c(O)ccc2ccccc12)c1cccs1 (10 µM)
inactive: EGFR 0 | EGFR_G719S 0 | EGFR_G719S_T790M 0 | EGFR_L718V 0 | EGFR_L858R 0 | EGFR_L861Q 0 | EGFR_T790M 0 | EPHA2 = 0 | ERBB3 = 0 | [1] 0

CNC(=O)Nc1cc(Oc2cncc(C)c2)c(-c2ccc(OCC(C)(C)O)nc2)cn1 (2.5 µM)
inactive: EGFR 0 | EGFR_G719S 0 | EGFR_G719S_T790M 0 | EGFR_L718V 0 | EGFR_L858R 0 | EGFR_L861Q 0 | EGFR_T790M 0 | EPHA2 = 0 | ERBB3 = 0 | [1] 0

COc1ncc2cc(C(=O)Nc3cc(C(=O)NCc4cccc(Cl)c4)ccc3Cl)c(=O)[nH]c2n1 (2.5 µM)
inactive: EGFR 0 | EGFR_G719S 0 | EGFR_G719S_T790M 0 | EGFR_L718V 0 | EGFR_L858R 0 | EGFR_L861Q 0 | EGFR_T790M 0 | EPHA2 = 0 | ERBB3 = 0 | [1] 0

C[C@@H]1CC[C@]2(C(=O)O)CC[C@]3(C)C(=CC[C@@H]4[C@@]5(C)CC[C@H](O)[C@@](C)(CO)[C@@H]5CC[C@]43C)[C@@H]2[C@]1(C)O [Rotundic acid] (10 µM)
inactive: EGFR 0 | EGFR_G719S 0 | EGFR_G719S_T790M 0 | EGFR_L718V 0 | EGFR_L858R 0 | EGFR_L861Q 0 | EGFR_T790M 0 | EPHA2 = 0 | ERBB3 = 0 | [1] 0

Cc1cc(=O)[nH]c(=S)[nH]1 [Methylthiouracil] (10 µM)
inactive: EGFR 0 | EGFR_G719S 0 | EGFR_G719S_T790M 0 | EGFR_L718V 0 | EGFR_L858R 0 | EGFR_L861Q 0 | EGFR_T790M 0 | EPHA2 = 0 | ERBB3 = 0 | [1] 0

O=C(O)[C@]1(Cc2cccc(Nc3nccs3)n2)CC[C@@H](Oc2cccc(Cl)c2F)CC1 (2.5 µM)
inactive: EGFR 0 | EGFR_G719S 0 | EGFR_G719S_T790M 0 | EGFR_L718V 0 | EGFR_L858R 0 | EGFR_L861Q 0 | EGFR_T790M 0 | EPHA2 = 0 | ERBB3 = 0 | [1] 0

Cc1c(Br)c(Br)c2c3c1nc(N1CCNCC1)n3CCC2 [SEL120-34A (monohydrochloride)] (2.5 µM)
inactive: EGFR 0 | EGFR_G719S 0 | EGFR_G719S_T790M 0 | EGFR_L718V 0 | EGFR_L858R 0 | EGFR_L861Q 0 | EGFR_T790M 0 | EPHA2 = 0 | ERBB3 = 0 | [1] 0

Cn1sc(=O)n(Cc2ccccc2)c1=O (10 µM)
inactive: EGFR 0 | EGFR_G719S 0 | EGFR_G719S_T790M 0 | EGFR_L718V 0 | EGFR_L858R 0 | EGFR_L861Q 0 | EGFR_T790M 0 | EPHA2 = 0 | ERBB3 = 0 | [1] 0

CN(C)CCCn1cc(C2=C(c3c[nH]c4ccccc34)C(=O)NC2=O)c2ccccc21 [Bisindolylmaleimide I] (2.5 µM)
inactive: EGFR 0 | EGFR_G719S 0 | EGFR_G719S_T790M 0 | EGFR_L718V 0 | EGFR_L858R 0 | EGFR_L861Q 0 | EGFR_T790M 0 | EPHA2 = 0 | ERBB3 = 0 | [1] 0

CC(C)[C@H](CO)Nc1nc(Nc2ccc(C(=O)O)c(Cl)c2)c2ncn(C(C)C)c2n1 [Purvalanol B] (10 µM)
inactive: EGFR 0 | EGFR_G719S 0 | EGFR_G719S_T790M 0 | EGFR_L718V 0 | EGFR_L858R 0 | EGFR_L861Q 0 | EGFR_T790M 0 | EPHA2 = 0 | ERBB3 = 0 | [1] 0

Cc1nc(NC(=O)N2CCC[C@H]2C(N)=O)sc1-c1csc(C(C)(C)C)n1 (10 µM)
inactive: EGFR 0 | EGFR_G719S 0 | EGFR_G719S_T790M 0 | EGFR_L718V 0 | EGFR_L858R 0 | EGFR_L861Q 0 | EGFR_T790M 0 | EPHA2 = 0 | ERBB3 = 0 | [1] 0

CN(C/C=C/C(=O)Nc1ccc(C(=O)Nc2cccc(Nc3ncc(Cl)c(-c4c[nH]c5ccccc45)n3)c2)cc1)CCCNC(=O)NCCOCCOCCOCCNC(=O)CCCC[C@@H]1SC[C@@H]2NC(=O)N[C@@H]21 (2.5 µM)
inactive: EGFR 0 | EGFR_G719S 0 | EGFR_G719S_T790M 0 | EGFR_L718V 0 | EGFR_L858R 0 | EGFR_L861Q 0 | EGFR_T790M 0 | EPHA2 = 0 | ERBB3 = 0 | [1] 0

O=C(Nc1cc(Cl)cc(Cl)c1)Nc1cc(Cl)cc(Cl)c1 (10 µM)
inactive: EGFR 0 | EGFR_G719S 0 | EGFR_G719S_T790M 0 | EGFR_L718V 0 | EGFR_L858R 0 | EGFR_L861Q 0 | EGFR_T790M 0 | EPHA2 = 0 | ERBB3 = 0 | [1] 0

O=C(Nc1nccs1)C(c1cc(F)ccc1O)N1Cc2ccc(-c3ccc(N4CCNCC4)cc3)cc2C1=O (racemic) (10 µM)
inactive: EGFR 0 | EGFR_G719S 0 | EGFR_G719S_T790M 0 | EGFR_L718V 0 | EGFR_L858R 0 | EGFR_L861Q 0 | EGFR_T790M 0 | EPHA2 = 0 | ERBB3 = 0 | [1] 0

CCOc1cc(C(=O)N2CCC(N3CCN(C)CC3)CC2)ccc1Nc1ncc2c(n1)N(S(C)(=O)=O)c1ccccc1C(=O)N2C (10 µM)
inactive: EGFR 0 | EGFR_G719S 0 | EGFR_G719S_T790M 0 | EGFR_L718V 0 | EGFR_L858R 0 | EGFR_L861Q 0 | EGFR_T790M 0 | EPHA2 = 0 | ERBB3 = 0 | [1] 0

COc1cc(Nc2nc3ccccc3nc2NS(=O)(=O)c2ccc(NC(=O)c3ccc(C)c(OC)c3)cc2)cc(OC)c1 (10 µM)
inactive: EGFR 0 | EGFR_G719S 0 | EGFR_G719S_T790M 0 | EGFR_L718V 0 | EGFR_L858R 0 | EGFR_L861Q 0 | EGFR_T790M 0 | EPHA2 = 0 | ERBB3 = 0 | [1] 0

Cc1ccc(-c2csc(Cn3nc(CC4OCCCO4)c4ccccc4c3=O)n2)cc1 (10 µM)
inactive: EGFR 0 | EGFR_G719S 0 | EGFR_G719S_T790M 0 | EGFR_L718V 0 | EGFR_L858R 0 | EGFR_L861Q 0 | EGFR_T790M 0 | EPHA2 = 0 | ERBB3 = 0 | [1] 0

3 entries already listed, arranged by count of non-hydrogen atoms, largest number first:
C[C@@H]1CC[C@]2(C(=O)O)CC[C@]3(C)C(=CC[C@@H]4[C@@]5(C)CC[C@H](O)[C@@](C)(CO)[C@@H]5CC[C@]43C)[C@@H]2[C@]1(C)O [Rotundic acid] (10 µM)
inactive: EGFR 0 | EGFR_G719S 0 | EGFR_G719S_T790M 0 | EGFR_L718V 0 | EGFR_L858R 0 | EGFR_L861Q 0 | EGFR_T790M 0 | EPHA2 = 0 | ERBB3 = 0 | [1] 0

COc1ncc2cc(C(=O)Nc3cc(C(=O)NCc4cccc(Cl)c4)ccc3Cl)c(=O)[nH]c2n1 (2.5 µM)
inactive: EGFR 0 | EGFR_G719S 0 | EGFR_G719S_T790M 0 | EGFR_L718V 0 | EGFR_L858R 0 | EGFR_L861Q 0 | EGFR_T790M 0 | EPHA2 = 0 | ERBB3 = 0 | [1] 0

CN(C)CCCn1cc(C2=C(c3c[nH]c4ccccc34)C(=O)NC2=O)c2ccccc21 [Bisindolylmaleimide I] (2.5 µM)
inactive: EGFR 0 | EGFR_G719S 0 | EGFR_G719S_T790M 0 | EGFR_L718V 0 | EGFR_L858R 0 | EGFR_L861Q 0 | EGFR_T790M 0 | EPHA2 = 0 | ERBB3 = 0 | [1] 0

(further entries)

C[C@]1(O)C[C@@](N)(c2ccc(-c3nc4n(c3-c3ccccc3)COc3ccncc3-4)cc2)C1 [TAS-117 (hydrochloride)] (10 µM)
inactive: EGFR 0 | EGFR_G719S 0 | EGFR_G719S_T790M 0 | EGFR_L718V 0 | EGFR_L858R 0 | EGFR_L861Q 0 | EGFR_T790M 0 | EPHA2 = 0 | ERBB3 = 0 | [1] 0
